Data set [1] has as its target PARP1 (human) (UniProt P09874). The data set can be described thus: photo-cross-linking. Particulars: recombinant protein.
In another data set the test system is Ku antigen (Ku70/Ku80). The data set can be described thus: photo-cross-linking. The following applies: 100 nM DNA, 100 nM protein, Ku70 and Ku80 labelled; 3'-terminal FAP-dCMP on strand 1; 5'-p-diethylene glycol on strand 2.
The target in data set [2] is PARP2 (human) (UniProt Q9UGN5). The data set can be described thus: EMSA. Particulars: EMSA: 50 mM Tris-HCl pH 8.0, 20 mM NaCl, 0.25 mM EDTA, 5% glycerol, 0.025% NP-40, 37 °C 20 min, 8% PAAG, 0.5x TBE, 10 °C, recombinant protein, label: 5'-32P on O1-Pho strand.
Data set [3] deals with PARP1 (human) (UniProt P09874). The data set can be described thus: EMSA. The following applies: 10 nM PARP1, 10 nM DNA, range over the three LS-DNAs, EMSA: 50 mM Tris-HCl pH 8.0, 20 mM NaCl, 0.25 mM EDTA, 5% glycerol, 0.025% NP-40, 37 °C 20 min, 8% PAAG, 0.5x TBE, 10 °C, recombinant protein, label: 5'-32P on O1-Pho strand. Background: Mobility shift assays separate free from complexed probe on a gel.

Chains of the proteins cited; added tags and fusions are not shown. Lines headed by an entry give the natural chain unless they say otherwise; changes in a name come on top.
UniProt P09874, whole entry: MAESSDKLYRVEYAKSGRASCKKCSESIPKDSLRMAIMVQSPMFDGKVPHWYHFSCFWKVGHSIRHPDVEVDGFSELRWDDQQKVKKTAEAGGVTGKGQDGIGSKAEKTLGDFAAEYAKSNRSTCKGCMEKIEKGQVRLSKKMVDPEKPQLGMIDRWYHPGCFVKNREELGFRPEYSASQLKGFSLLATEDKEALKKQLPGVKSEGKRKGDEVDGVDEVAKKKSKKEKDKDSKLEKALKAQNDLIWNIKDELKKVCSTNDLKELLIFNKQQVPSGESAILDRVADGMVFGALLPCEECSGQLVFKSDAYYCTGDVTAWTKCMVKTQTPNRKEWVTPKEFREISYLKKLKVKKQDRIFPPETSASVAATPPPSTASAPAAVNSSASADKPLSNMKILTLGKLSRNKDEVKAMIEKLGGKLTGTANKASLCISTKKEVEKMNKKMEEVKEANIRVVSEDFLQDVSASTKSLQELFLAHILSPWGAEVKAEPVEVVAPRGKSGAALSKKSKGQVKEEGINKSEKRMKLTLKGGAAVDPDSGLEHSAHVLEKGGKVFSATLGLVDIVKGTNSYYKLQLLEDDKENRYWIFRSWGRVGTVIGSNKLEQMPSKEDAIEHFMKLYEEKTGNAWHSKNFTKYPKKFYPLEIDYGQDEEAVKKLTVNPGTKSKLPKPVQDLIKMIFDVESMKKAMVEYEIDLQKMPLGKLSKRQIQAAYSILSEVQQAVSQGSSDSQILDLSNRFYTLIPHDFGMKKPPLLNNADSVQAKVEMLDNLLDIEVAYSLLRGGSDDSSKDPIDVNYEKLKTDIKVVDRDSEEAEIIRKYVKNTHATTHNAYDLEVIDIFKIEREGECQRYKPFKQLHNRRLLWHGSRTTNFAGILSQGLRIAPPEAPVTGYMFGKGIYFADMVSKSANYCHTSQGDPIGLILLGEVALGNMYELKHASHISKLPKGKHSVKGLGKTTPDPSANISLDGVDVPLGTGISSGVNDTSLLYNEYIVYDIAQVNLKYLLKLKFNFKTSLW
UniProt Q9UGN5: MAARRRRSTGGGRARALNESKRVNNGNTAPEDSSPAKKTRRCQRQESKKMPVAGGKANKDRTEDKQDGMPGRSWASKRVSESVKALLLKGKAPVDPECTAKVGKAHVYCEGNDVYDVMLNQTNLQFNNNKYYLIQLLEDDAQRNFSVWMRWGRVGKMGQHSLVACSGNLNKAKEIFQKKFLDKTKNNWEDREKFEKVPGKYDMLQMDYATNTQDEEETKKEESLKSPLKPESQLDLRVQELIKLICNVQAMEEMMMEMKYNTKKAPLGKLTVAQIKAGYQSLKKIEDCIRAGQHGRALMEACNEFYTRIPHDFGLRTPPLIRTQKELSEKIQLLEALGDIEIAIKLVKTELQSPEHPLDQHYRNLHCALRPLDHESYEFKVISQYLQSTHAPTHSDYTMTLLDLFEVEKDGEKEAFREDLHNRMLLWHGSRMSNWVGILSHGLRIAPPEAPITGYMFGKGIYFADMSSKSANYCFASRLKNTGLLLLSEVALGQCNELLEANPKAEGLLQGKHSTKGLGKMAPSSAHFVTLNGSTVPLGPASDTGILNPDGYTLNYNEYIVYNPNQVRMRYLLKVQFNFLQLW

Another data set deals with T1, PARP3 (UniProt Q9Y6F1).
T1 sequence (looked up, limits assumed): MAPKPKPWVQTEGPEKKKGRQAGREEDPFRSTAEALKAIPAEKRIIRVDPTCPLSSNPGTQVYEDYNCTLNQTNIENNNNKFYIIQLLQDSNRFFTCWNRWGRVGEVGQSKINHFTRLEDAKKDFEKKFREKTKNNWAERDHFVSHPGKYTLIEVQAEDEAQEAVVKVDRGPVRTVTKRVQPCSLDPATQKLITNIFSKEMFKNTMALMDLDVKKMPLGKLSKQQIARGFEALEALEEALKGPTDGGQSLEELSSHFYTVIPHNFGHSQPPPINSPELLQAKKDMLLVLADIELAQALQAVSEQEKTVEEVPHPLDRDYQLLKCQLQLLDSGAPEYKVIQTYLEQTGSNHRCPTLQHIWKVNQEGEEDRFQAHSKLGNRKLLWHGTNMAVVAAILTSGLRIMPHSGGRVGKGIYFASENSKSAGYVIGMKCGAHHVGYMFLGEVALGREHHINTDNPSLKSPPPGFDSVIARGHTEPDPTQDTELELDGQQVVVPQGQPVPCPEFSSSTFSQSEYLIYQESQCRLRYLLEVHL
The data set can be described thus: EMSA. Particulars: 10 nM DNA, EMSA: 50 mM Tris-HCl pH 8.0, 20 mM NaCl, 0.25 mM EDTA, 5% glycerol, 0.025% NP-40, 37 °C 20 min, 8% PAAG, 0.5x TBE, 10 °C, recombinant protein, label: 5'-32P on O1-Pho strand.

For data set [4], the target named is PARP2 (human) (UniProt Q9UGN5). The data set can be described thus: photo-cross-linking. The following applies: with NAD+ (autoPARylated PARP2); 3'-terminal FAP-dCMP (photoactivatable C) on strand 2; recombinant protein; label: 5'-32P.

The results in this text go back to article PMC12346409.

For at least one entry, the source does not settle the construct or the ends of the probe. For some assays here: Weaker means in comparison with the reference protein, sequence or condition of that experiment. For some assays here: At least one verdict was read from the data and is not stated in words by the source. For some assays here: Tags and fusion partners may be left off the protein sequences shown.

As to “GGCGACTAAGCCGGGC / AACGCCAGGGCCTCCC / GGGAGGCCCTGGCGTTGCCCGGCTTAGTCGCC [Pho-pDEG]”, the binding result is “binds” in the data set with PARP1 (human) [1] (100 nM DNA, 100 nM protein, 3'-terminal FAP-dCMP on strand 1, 5'-p-diethylene glycol on strand 2) and “binds” in the data set on Ku antigen (Ku70/Ku80).

For the sequence “TCCTGACATACTTGATACTTAGACATTCTT / AAGAATGTCTAAGTATCAAGTATGT [DNA-Chol (EMSA, O-Chol/O1-Pho)]”, the binding result with PARP2 (human) [2] (10 nM DNA, at most 15% at 10 nM PARP2, 3'-cholesterol via linker on strand 1) is “binds”; in the data set with PARP1 (human) [3] (3'-cholesterol via linker on strand 1), “binds”; in the data set with PARP3 (at most 25% at 10 nM PARP3, 3'-cholesterol via linker on strand 1), “binds”.

For the sequence “TCCTGACATACTTGATACTTAGACATTCTT / AAGAATGTCTAAGTATCAAGTATGT [DNA-PG-TZD (EMSA, O-PG-TZD/O1-Pho)]”, the binding result with PARP2 (human) [2] (10 nM DNA, at most 15% at 10 nM PARP2, phosphorylguanidine at internucleotide phosphates 1 and 2, TZD between T29 and T30 of strand 1) is “binds”; with PARP1 (human) [3] (phosphorylguanidine at internucleotide phosphates 1 and 2, TZD between T29 and T30 of strand 1), “binds”; with PARP3 (at most 25% at 10 nM PARP3, phosphorylguanidine at internucleotide phosphates 1 and 2, TZD between T29 and T30 of strand 1) it was “binds”.

Consider “TCCTGACATACTTGATACTTAGACATTCTT / AAGAATGTCTAAGTATCAAGTATGT [DNA-R (EMSA, O-R/O1-Pho)]”, for which, in the data set with PARP2 (human) [2] (no complex at 10 nM PARP2, 10 nM DNA, complexes implied at protein excess), the binding result is “binds more weakly”.

Consider “TCCTGACATACTTGATACTTAGACATTCTT / AAGAATGTCTAAGTATCAAGTATGT [DNA-TZD (EMSA, O-TZD/O1-Pho)]”, for which the binding result is on record as “binds” with PARP2 (human) [2] (10 nM DNA, maximal LS-DNA binding 15% (lane 2) at 10 nM PARP2, triazinyl phosphoramidate with two dodecyl residues between T29 and T30 of strand 1); “binds” in the data set with PARP1 (human) [3] (triazinyl phosphoramidate with two dodecyl residues between T29 and T30 of strand 1); “binds” with PARP3 (maximal LS-DNA binding 25% (lane 2) at 10 nM PARP3, triazinyl phosphoramidate with two dodecyl residues between T29 and T30 of strand 1).

Consider “TCCTGACATACTTGATACTTAGACATTCTT / AAGAATGTCTAAGTATCAAGTATGTC [Pho-DNA-R]”, for which the binding result with PARP2 (human) [4] is “binds more weakly”; in the data set with PARP1 (human) [1] (with NAD+ (autoPARylated PARP1), 3'-terminal FAP-dCMP (photoactivatable C) on strand 2, label: 5'-32P), “binds more weakly”.
